# Data reported in PubChem BioAssay AID651640 (Broad Institute, 2012).
# Among all 350,000 compounds or so, about 6,000 (1.7%) were called active. Inconclusive means that the source gave no clear call. Such entries were picked first, then a sample of the others. No stated cut-off is given here; in the data, active means CPE inhibition above about 20% (passing the limit was not always enough); inconclusive means no clear call, values can overlap the other calls; tested in BHK-21 cells.
# Experiment: protection of cells from dengue 2 killing – plate reader, single concentration, primary screen (AID 651640);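 further: 0% = median of neutral control wells and 100% = median of positive control wells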
# Details: DENV2-infected cells, cytopathic effect rescue, at 9.99 µM, active compounds read high
row,SMILES,CPE inhibition
1,CC1CCC2(CC1)NC(=O)N(CC(=O)N1CCOCC1)C2=O (stereo not drawn),inconclusive: 20.5%
2,CCn1nc(C)c(CN2CCC(n3nccc3NC(=O)c3ccccc3OC)CC2)c1C,inconclusive: 32.1%
3,CN(C(=O)c1cccc(S(=O)(=O)N2CCOCC2)c1)c1c(N)n(Cc2ccccc2)c(=O)[nH]c1=O,inconclusive: 48.5%
4,CS(=O)(=O)N1[C@@H]2c3ccc(-c4ccc(F)cc4)c(=O)n3C[C@H]1[C@H](CO)[C@H]2C(=O)NCC1CC1,active: 121%
5,CO[C@@H]1CN(C)C(=O)c2cc(NC(=O)NC3CCCC3)ccc2OC[C@H](C)NC[C@@H]1C,inactive: -13.4%
6,O=C(C[C@H]1C[C@@H]2c3cc(NS(=O)(=O)c4ccc(F)cc4)ccc3O[C@@H]2[C@H](CO)O1)NCc1ccccc1F,inactive: 3.96%
7,C[C@H](CO)N1C[C@H](C)[C@H](CN(C)CC2CC2)Oc2cc(C#Cc3ccccc3F)ccc2S1(=O)=O,inconclusive: 33.8%
8,Nc1nnc(SCC(=O)Nc2cccc(Cl)c2)s1,active: 49.5%
9,O=C(C[C@@H]1CC[C@@H](NC(=O)c2ccc3c(c2)OCO3)[C@@H](CO)O1)NC1Cc2ccccc2C1,inactive: -1.97%
10,NC(=O)C1(c2ccccc2)OC1c1ccccc1 (stereo not drawn),active: 41.4%
11,CCCCCCNc1c([N+](=O)[O-])c(=O)sc2ccccc12,inactive: -2.75%
12,C[C@H](NC(=O)[C@H]1[C@H](CO)[C@H]2Cn3c(cccc3=O)[C@H]2N1CC1CCCCC1)c1ccccc1,inactive: -9.35%
13,O=C(NC(CC(=O)N1CCN(c2ccccc2O)CC1)c1ccccc1)c1ccccc1Cl (stereo not drawn),inconclusive: 39.4%
14,Cc1noc(C)c1NC(=O)N(C)C[C@@H]1OCCCC[C@H](C)Oc2ccc(NS(=O)(=O)c3cccs3)cc2C(=O)N([C@@H](C)CO)C[C@H]1C,active: 22.5%
15,O=C(COC(=O)CNC(=O)c1ccco1)Nc1ccccc1OC(F)F,inconclusive: 40.9%
16,CCC(C)c1ccc(S(=O)(=O)N2CCN(C(C)C(=O)NC3CCCC3)CC2)cc1 (stereo not drawn),inconclusive: 29.2%
17,COc1cccc(-c2cnc3c(c2)C(=O)N([C@H](C)CO)C[C@H](C)[C@H](CN(C)S(=O)(=O)c2cccc(OC)c2)O3)c1,inconclusive: 22.9%
18,Cc1ccc(-c2nc3ccccc3n2C(C)C(=O)NC(C)(C)C)cc1 (stereo not drawn),inconclusive: 50.2%
19,C[C@@H]1CN([C@@H](C)CO)C(=O)Cc2cc(NS(=O)(=O)c3cn(C)cn3)ccc2O[C@H]1CN(C)S(=O)(=O)c1ccc(F)cc1,inconclusive: 32.2%
20,CCOC(=O)[C@]12CCC=C1N(CCC1=CCCCC1)C(=O)[C@H](CC(=O)NCc1ccccc1)C2,inactive: -8.86%
21,C[C@@H]1CN([C@@H](C)CO)C(=O)c2cc(C#Cc3cccnc3)cnc2O[C@H]1CN(C)C(=O)CC1CC1,inactive: 6.04%
22,CCC(=O)Nc1ccc2c(c1)OC[C@H](C)N(C(=O)Cc1ccccn1)C[C@H](C)[C@@H](OC)CN(C)C2=O,inactive: -2.23%
23,C[C@H](CO)N1C[C@H](C)[C@H](CN(C)S(=O)(=O)c2ccc(Cl)cc2)Oc2c(NS(=O)(=O)c3cn(C)cn3)cccc2C1=O,inactive: -4.27%

row,SMILES,CPE inhibition
1,Cc1c(C(=O)Nc2nccs2)oc2c(Cl)cccc12,inconclusive: 32.1%
2,C[C@H]1CN([C@@H](C)CO)C(=O)c2cc(/C=C/c3ccccc3)cnc2O[C@H]1CN(C)Cc1cccc(C(=O)O)c1,inactive: -8.76%
3,CC(C)N1C(=O)c2ccccc2N(Cc2ccccc2)S1(=O)=O,inconclusive: 23.6%
4,Cc1ccc(OCCOc2cccc3ccc(C)nc23)c([N+](=O)[O-])c1,inactive: 1.15%
5,CC(=O)Nc1ccc(CN(C)c2c(C)nc3ccc(C(=O)Nc4ccc(Cl)c(Cl)c4)cn23)cc1,inconclusive: 20.4%
6,CC1(C)Cc2c(sc3nc(C4CCCCC4)n(N)c(=O)c23)CO1,inconclusive: 31.3%
7,CCCNC(=O)N1CCC2(CC1)CN(C(=O)COC)[C@H](CO)c1[nH]c3cc(OC)ccc3c12,active: 28.4%
8,Cc1noc(C)c1S(=O)(=O)Nc1ccc2c(c1)C(=O)N([C@H](C)CO)C[C@H](C)[C@H](CN(C)Cc1ccc(Oc3ccccc3)cc1)O2,inactive: 3.42%
9,COc1cc(CCC(=O)OCC(N)=O)cc(OC)c1OC,inactive: -2.73%
10,O=C(C1=NN(c2ccccc2)C(=O)CC1)N1CCc2ccccc2C1,inactive: 1.1%
11,C[C@@H]1CN([C@H](C)CO)C(=O)CCCn2nncc2CO[C@H]1CN(C)C(=O)Nc1ccc(C(C)(C)C)cc1,inactive: -0.715%
12,COc1ccc(NC(=O)Nc2ccc3c(c2)C(=O)N([C@H](C)CO)C[C@H](C)[C@@H](CN(C)C(=O)Cc2ccccc2)OCCCC[C@@H](C)O3)cc1,active: 68.4%
13,CN1c2ccc(C#Cc3cccnc3)cc2[C@@H]2[C@@H](CCN2C(=O)c2cccc(F)c2)[C@H]1CO,active: 59%
14,Cc1noc(C)c1NC(=O)Nc1ccc2c(c1)C(=O)N([C@@H](C)CO)C[C@@H](C)[C@@H](CN(C)C(=O)Nc1ccccc1)OCCCC[C@@H](C)O2,active: 21.8%
15,N#Cc1ccc(-c2ccc3c(c2)[C@H]2[C@H](CCN2C(=O)C2CCCCC2)[C@@H](CO)N3)cc1,inconclusive: 52%
16,C[C@@H]1CN([C@H](C)CO)C(=O)c2cccc(NC(=O)c3ccncc3)c2O[C@@H]1CN(C)C(=O)Nc1ccc(F)cc1,inactive: -2.23%
17,CO[C@H]1CN(C)C(=O)c2ccc(NC(=O)Nc3cccc(F)c3)cc2OC[C@H](C)N(C)C[C@@H]1C,inactive: -8.34%
18,C[C@@H]1CCCCO[C@H](CN(C)CC2CCCCC2)[C@H](C)CN([C@@H](C)CO)C(=O)c2cc(NS(=O)(=O)c3cccs3)ccc2O1,inactive: 1.45%
19,COc1ccc(OCc2nnc3n2N=C(c2ccc(C)cc2)CS3)cc1,inactive: -14.6%
20,COCC#Cc1cnc2c(c1)C(=O)N([C@@H](C)CO)C[C@H](C)[C@@H](CN(C)C(=O)C1CCCCC1)O2,inactive: -0.0445%
21,CC(C)NC(=O)N(C)C[C@H]1OCCCC[C@H](C)Oc2ccc(NC(=O)c3ccncc3)cc2C(=O)N([C@H](C)CO)C[C@@H]1C,inactive: -1.3%
22,C[C@H](O)C#Cc1ccc2c(c1)O[C@H](CN(C)C(=O)C1CC1)[C@@H](C)CN([C@@H](C)CO)S2(=O)=O,active: 56.6%
23,CN1CCN(C(=O)C[C@@H]2C[C@@H]3c4cc(NC(=O)CC5CC5)ccc4O[C@@H]3[C@@H](CO)O2)CC1,inconclusive: 30.7%

# Among those listed so far, these have a furan ring, fused or not.
row,SMILES,CPE inhibition
15,O=C(COC(=O)CNC(=O)c1ccco1)Nc1ccccc1OC(F)F,inconclusive: 40.9%
1,Cc1c(C(=O)Nc2nccs2)oc2c(Cl)cccc12,inconclusive: 32.1%

# Given bar-delimited: entries from further up
row | SMILES | CPE inhibition
11 | C[C@@H]1CN([C@H](C)CO)C(=O)CCCn2nncc2CO[C@H]1CN(C)C(=O)Nc1ccc(C(C)(C)C)cc1 | inactive: -0.715%
23 | CN1CCN(C(=O)C[C@@H]2C[C@@H]3c4cc(NC(=O)CC5CC5)ccc4O[C@@H]3[C@@H](CO)O2)CC1 | inconclusive: 30.7%

# The listing continues:

row,SMILES,CPE inhibition
1,C[C@@H]1CCCCO[C@@H](CN(C)S(C)(=O)=O)[C@@H](C)CN([C@H](C)CO)C(=O)c2cc(NS(C)(=O)=O)ccc2O1,inconclusive: 20.6%
2,CC(C)CC#Cc1ccc([C@H]2[C@H]3CN(C(=O)c4cnccn4)CC(=O)N3[C@H]2CO)cc1,inactive: 6.05%
3,CC(C)C[C@@H](CN1CCCC1CN1C(=S)NC[C@@H]1Cc1ccc(O)cc1)N1C[C@H](Cc2ccccc2)N(CC2CCCCC2)C1=S (stereo partly drawn),inconclusive: 24%
4,C/C(=N/NC(=O)CSc1nc2ccccc2s1)c1ccncc1,inconclusive: 41.8%
5,Cn1ccsc1=NC(=O)c1cc(S(=O)(=O)N2CCOCC2)ccc1Cl,inconclusive: 24.9%
6,OCCCc1cn(CC2CCCCC2)nn1,active: 47.8%
7,CN1CCN(c2ccc(S(=O)(=O)N3CCCCC3)cc2NC(=O)COc2cccc(Cl)c2)CC1,inconclusive: 21.6%
8,CC1CCN(C(=O)CN2C(=O)NC(c3ccccc3)(c3ccccc3)C2=O)CC1,inconclusive: 25.6%
9,C[C@@H]1CN([C@@H](C)CO)C(=O)CCCn2nncc2CO[C@H]1CN(C)Cc1ccc2cccnc2c1,inconclusive: 46.7%
10,C[C@@H]1CN([C@H](C)CO)C(=O)Cc2cc(NC(=O)CCCCCC(=O)Nc3ccccc3N)ccc2O[C@H]1CN(C)C(=O)NC1CCCCC1,inconclusive: 25.4%
11,CC(NC(=O)C(NS(=O)(=O)c1cccs1)C(C)C)c1ccc(S(N)(=O)=O)cc1 (stereo not drawn),inconclusive: 32.6%
12,CN(Cc1ccccc1)C(=O)c1cccc(NC(=O)Cc2ccc(NC(=O)C3CCN(C(=O)c4ccccc4)CC3)cc2)c1,inconclusive: 51.6%
13,O=c1c(Cl)c(NCc2ccccc2Cl)cnn1C12CC3CC(CC(C3)C1)C2,inconclusive: 21.2%
14,NC(c1csc(Nc2cc(Oc3ccccc3)ncn2)n1)C1CCCCC1 (stereo not drawn),inactive: 7.57%
15,O=C(CSc1nnc2ccccn12)NNC(=O)c1ccc(F)cc1,inconclusive: 22.1%
16,COc1cc(NC(=O)c2cccnc2)c(Cl)cc1NC(=O)c1ccccc1,inconclusive: 47.9%
17,C/C=C/c1ccc([C@@H]2[C@H](CO)N(CCC(F)(F)F)C23CN(C(=O)COC)C3)cc1,inactive: 15.3%
18,C[C@@H]1CN([C@@H](C)CO)C(=O)c2cc(NS(=O)(=O)c3cn(C)cn3)ccc2O[C@H]1CN(C)C(=O)Nc1ccc2c(c1)OCO2,inactive: 4.91%
19,Cc1ccc(S(=O)(=O)Nc2ccc3c(c2)C(=O)N([C@@H](C)CO)C[C@H](C)[C@H](CN(C)S(=O)(=O)c2ccc(F)cc2)OCCCC[C@@H](C)O3)cc1,inactive: 12.2%
20,C[C@@H]1CN([C@@H](C)CO)C(=O)Cc2cc(NS(=O)(=O)c3cn(C)cn3)ccc2O[C@H]1CN(C)Cc1ccc(C(=O)Nc2ccccc2N)cc1,active: 107%
21,CCN(CC)c1ccc(/C=N/N2CCN(Cc3ccccc3Cl)CC2)cc1,inactive: -1.21%
22,COc1ccc(C#Cc2ccc([C@H]3[C@@H](CO)N4CCCCN(S(=O)(=O)c5ccccc5)C[C@@H]34)cc2)cc1,active: 81.9%
